PubChem BioAssay AID1259308 – NCATS, 2017
Screen: 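Candidate targets for better recombinant protein yield in mammalian cells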 (primary screen). System: human HEK293 embryonic kidney cells stably expressing firefly luciferase (HEK-CMV-Luc2-Hygro). Reagent: single siRNA against human genes, 0.8 pmol siRNA per well. Time to read-out: 72 h. Measurement: 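Luciferase light (ONE-Glo) measured on one replicate plate set and viability (CellTiter-Glo) on the other, scaled to a negative control siRNA, with robust z-scores and luciferase per cell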. Reading the numbers: total luciferase, z-score: higher = more reporter protein produced. Hit rule: 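An siRNA counts as active if its total luciferase robust z-score exceeds 3; genes with two or more such siRNAs out of three were retested with fresh siRNAs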. Meaning of the calls: active = raised luciferase; inactive = no rise.
The whole screen tested about 59,000 reagents; below is an unselected part. Over the whole deposit, about 1,510 (2.6%) got an active call. 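Calls use total luciferase alone and ignore viability, so some active siRNAs may act by altering cell number.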 A number with no mark means an inactive call. Reagents against one gene are numbered here. Further read-outs or replicates are left out here.

Gene | siRNA no. | total luciferase, z-score
ARSJ (arylsulfatase family member J) | 1 | 1.58
ARSJ (arylsulfatase family member J) | 2 | 0.344
ARSJ (arylsulfatase family member J) | 3 | 0.727
CSAG2 (CSAG family member 2) | 1 | -0.782
CSAG2 (CSAG family member 2) | 2 | -0.353
CSAG2 (CSAG family member 2) | 3 | -0.716
RIN3 (Ras and Rab interactor 3) | 1 | 1.06
RIN3 (Ras and Rab interactor 3) | 2 | -0.54
RIN3 (Ras and Rab interactor 3) | 3 | 1.86
USP40 (ubiquitin specific peptidase 40) | 1 | -0.434
USP40 (ubiquitin specific peptidase 40) | 2 | -1.04
USP40 (ubiquitin specific peptidase 40) | 3 | 0.193
RNF113B (ring finger protein 113B) | 1 | -2.11
RNF113B (ring finger protein 113B) | 2 | -0.992
RNF113B (ring finger protein 113B) | 3 | -0.142
B3GALT1 (beta-1,3-galactosyltransferase 1) | 1 | 0.351
B3GALT1 (beta-1,3-galactosyltransferase 1) | 2 | -0.192
B3GALT1 (beta-1,3-galactosyltransferase 1) | 3 | 0.346
ZNF468 (zinc finger protein 468) | 1 | 0.668
ZNF468 (zinc finger protein 468) | 2 | -0.132
ZNF468 (zinc finger protein 468) | 3 | -0.00452
RADX (RPA1 related single stranded DNA binding protein, X-linked) | 1 | -0.095
RADX (RPA1 related single stranded DNA binding protein, X-linked) | 2 | -0.464
RADX (RPA1 related single stranded DNA binding protein, X-linked) | 3 | -0.147
AMBN (ameloblastin) | 1 | -0.599
AMBN (ameloblastin) | 2 | -0.692
AMBN (ameloblastin) | 3 | -0.0668
RNF181 (ring finger protein 181) | 1 | 0.0666
RNF181 (ring finger protein 181) | 2 | 0.538
RNF181 (ring finger protein 181) | 3 | -1.11
EPHB1 (EPH receptor B1) | 1 | -1.21
EPHB1 (EPH receptor B1) | 2 | 0.559
EPHB1 (EPH receptor B1) | 3 | 1.55
TPD52L1 (TPD52 like 1) | 1 | -1.74
TPD52L1 (TPD52 like 1) | 2 | -1.02
TPD52L1 (TPD52 like 1) | 3 | 1.72
KIAA1191 | 1 | 1.97
KIAA1191 | 2 | -2.1
KIAA1191 | 3 | -0.798

Reprinted from above for reference:
Gene | siRNA no. | total luciferase, z-score
USP40 (ubiquitin specific peptidase 40) | 2 | -1.04
USP40 (ubiquitin specific peptidase 40) | 3 | 0.193
RNF113B (ring finger protein 113B) | 1 | -2.11
RNF113B (ring finger protein 113B) | 2 | -0.992
